{
  "source": "PubChem BioAssay AID540276",
  "about": "(National Center for Advancing Translational Sciences (NCATS), 2011)",
  "note": "Several values for one entry are separate records, joined by “and”; a condition that tells them apart may be missing. Identical values can stand only once. Among all 300,000 compounds or so, about 5,400 (1.8%) were called active. The shares of active, inactive and inconclusive entries below differ from those in the screen. Calls follow the shape of the full dose curve; tested in HEK293 cells. Potencies beside an inconclusive call are fits to weak or partial responses and may not hold up. Potency is read from the fitted curve at half-maximal effect.",
  "data": [
    {"experiment": "qHTS for inhibitors of binding or entry into cells for Marburg Virus", "conditions": "Marburg virus pseudotyped entry inhibition, cell reporter; series mostly up to 37.8 µM", "values": [
      {"compound": "CCSc1nnc(-c2ccc(OC)cc2)o1", "Potency": "inactive"},
      {"compound": "CCCCCC[n+]1c(-c2ccccc2)csc1Nc1ccccc1", "Potency": "inactive"},
      {"compound": "COc1ccc(CC(=O)Oc2ccc(Br)cc2F)cc1S(=O)(=O)N1CCOCC1", "Potency": "inactive"},
      {"compound": "O=C1c2ccc3c4c(ccc(c24)C(=O)N1c1ccc(O)cc1)C(=O)N(c1ccc(O)cc1)C3=O", "Potency": "inactive"},
      {"compound": "CN(C)CC/C=C1/c2cc(F)ccc2Sc2ccc(Cl)cc21", "Potency": "inconclusive: 35.5 µM [inhibitor, single point]"},
      {"compound": "Nc1nc(Cl)cc(N2CCC(c3cc(-c4ccc(Cl)cc4)n[nH]3)CC2)n1", "Potency": "inconclusive: 16.4 µM [inhibitor, single point]"},
      {"compound": "CCOC(=O)CC(NC(=O)CCc1c(C)nc2c(-c3ccccc3)c(C)nn2c1C)c1ccc(C)cc1", "note": "(centres undefined)", "Potency": "inconclusive: 1 µM [inhibitor, full curve, poor fit]"},
      {"compound": "O=c1c2ccccc2nc(/C=C/c2ccccc2)n1-c1ccccc1O", "Potency": "inconclusive: 31.6 µM [inhibitor, partial curve, poor fit]"},
      {"compound": "COc1ccc(-c2c3c(=O)n(C)c(=O)n(C)c3cn2-c2cccc(N)c2)cc1", "Potency": "inactive"},
      {"compound": "CCOc1ccc(C(=O)Nc2ccc(N3CCN(C)CC3)cc2)cc1Br", "Potency": "active: 11.2 µM"},
      {"compound": "CCOc1ccc(S(=O)(=O)N/N=C2/CC(c3ccccc3)Oc3ccccc32)cc1", "note": "(centres undefined)", "Potency": "inconclusive: 14.6 µM [inhibitor, partial curve, poor fit]"},
      {"compound": "CNc1nc(-c2ccc3c(c2)CCN3S(=O)(=O)c2ccccc2)c(C)s1", "Potency": "inconclusive: 5.62 µM [activator, single point]"},
      {"compound": "COC(=O)C1C/C(=N\\NS(=O)(=O)c2ccc(C)cc2)c2sccc2C1", "note": "(centres undefined)", "Potency": "inactive"},
      {"compound": "CCOc1ccc(Nc2c(S(=O)(=O)c3ccc(Cl)cc3)cnc3ccc(OC)cc23)cc1", "Potency": "inactive"},
      {"compound": "CCOC(=O)c1cc(NC(=O)N2CCOCC2)c(C)nc1C", "Potency": "inconclusive: 0.282 µM [inhibitor, partial curve, poor fit]"},
      {"compound": "COc1ccc(-c2csc(NC(=O)c3ccccc3NS(=O)(=O)c3ccc(F)c(F)c3)n2)cc1", "Potency": "active: 2.31 µM"},
      {"compound": "CCOC(=O)c1cnn(CC2CCCCC2)c1N", "Potency": "inconclusive: 0.794 µM [activator, single point]"},
      {"compound": "Cc1noc(C)c1COc1ccc(C(=O)NCc2ccccn2)cc1", "Potency": "inactive"},
      {"compound": "COc1cc2c(cc1NC(=O)Nc1ccc(C)cc1)oc1ccccc12", "Potency": "inactive"},
      {"compound": "COCC(C)n1c(SCC(=O)c2cc(C)n(C)c2C)nc2ccccc2c1=O", "note": "(centres undefined)", "Potency": "inconclusive: 22.4 µM [inhibitor, single point]"},
      {"compound": "CC1(C)CN(c2ccc(C(=O)c3ccccc3)cc2)C1=O", "Potency": "inconclusive: 2.51 µM [inhibitor, partial curve, poor fit]"},
      {"compound": "CCOCC(=O)Nc1ccc(S(=O)(=O)N2CCC(c3nc4ccccc4[nH]3)CC2)cc1", "Potency": "inconclusive: 35.5 µM [inhibitor, single point]"},
      {"compound": "Cc1cc(Br)ccc1NC(=O)CNC(=O)Cc1ccc(S(=O)(=O)N2CCOCC2)s1", "Potency": "inconclusive: 0.316 µM [activator, full curve, poor fit]"},
      {"compound": "NC(=O)CC[C@@H]1NC(=O)[C@@H]2CCCN2C(=O)c2cc([N+](=O)[O-])cc(I)c2NCCC[C@@H](C(=O)NC(CC(=O)O)C(N)=O)NC1=O", "note": "(some centres undefined)", "Potency": "inconclusive: 6.51 µM [inhibitor, single point]"},
      {"compound": "Cc1ccccc1CN1N=C(/C=C/c2ccccc2)CCC1=O", "Potency": "inactive"},
      {"compound": "CCC1CCC(c2nnc(-c3ccc([N+](=O)[O-])cc3)o2)CC1", "note": "(centres undefined)", "Potency": "inconclusive: 11.2 µM [activator, partial curve, poor fit]"},
      {"compound": "O=C(c1ccccc1-c1nc(-c2ccc(F)cc2)no1)N1CCCC1", "Potency": "inconclusive: 3.16 µM [inhibitor, single point]"},
      {"compound": "O=C(CSc1cccc(C(F)(F)F)c1)NCc1ccccc1", "Potency": "inactive"},
      {"compound": "Cc1ccnc2nc(C(=O)Nc3ccc4c(c3)OCO4)nn12", "Potency": "inconclusive: 32.6 µM [inhibitor, single point]"},
      {"compound": "Cc1c(C)n(Cc2ccccc2)c2ccc(C(=O)NCCCN3CCOCC3)cc12", "Potency": "inconclusive: 8.91 µM [inhibitor, partial curve, poor fit]"},
      {"compound": "COc1cc(C(=O)OCC(=O)Nc2cccc(S(=O)(=O)N3CCOCC3)c2)ccc1OCC(C)C", "Potency": "inactive"},
      {"compound": "Cc1ccsc1/C=N\\NC(=O)CC(=O)NCc1ccccc1", "Potency": "inactive"},
      {"compound": "CCOc1ccccc1NC(=O)CCSc1nc2n[nH]c(C)c2c(=N)n1-c1ccccc1Cl", "Potency": "inconclusive: 3.66 µM [inhibitor, partial curve, poor fit]"},
      {"compound": "CCOC(=O)C1(Cc2ccc(OC)cc2)CCN(C(=O)C2=CCCC2)CC1", "Potency": "inconclusive: 3.16 µM [activator, full curve, poor fit]"},
      {"compound": "O=C(Nc1ccc(Cl)cc1)c1csc(-c2ccncc2)n1", "Potency": "inconclusive: 11.2 µM [inhibitor, partial curve, poor fit]"},
      {"compound": "Cc1onc(-c2ccccc2Cl)c1C(=O)OCC(=O)Nc1cccc(S(=O)(=O)N2CCOCC2)c1", "Potency": "inconclusive: 11.2 µM [inhibitor, single point]"},
      {"compound": "CCOc1ccc(Nc2nc(Cc3nnc(SCC(=O)O)o3)cs2)cc1", "Potency": "inactive"},
      {"compound": "O=C1CCc2cc(S(=O)(=O)NCc3ccc(Cl)cc3)cc3c2N1CC3", "Potency": "inconclusive: 35.5 µM [activator, single point]"},
      {"compound": "Cc1csc(NC(=O)c2ccc(C)c(S(=O)(=O)N3CCCCC3)c2)n1", "Potency": "inactive"},
      {"compound": "O=C(O)c1ccccc1Nc1ccccc1", "Potency": "inactive and inconclusive: 20.6 µM [activator, single point]"},
      {"compound": "Cc1c(Cl)cccc1NC(=S)NCCc1ccc(S(N)(=O)=O)cc1", "Potency": "inconclusive: 8.91 µM [inhibitor, partial curve, poor fit]"},
      {"compound": "O=C(N/N=C/c1ccc(O)c(O)c1)c1ccc(CSc2cccc3cccnc23)cc1", "Potency": "inactive"},
      {"compound": "CCC(C(=O)NCCN1CCN(C)CC1)n1c(C)c2cnn(-c3ccccc3)c(=O)c2c1C", "note": "(centres undefined)", "Potency": "inconclusive: 35.5 µM [inhibitor, single point]"},
      {"compound": "O=C(NCCc1ccco1)c1ccc(OCc2cn3ccccc3n2)cc1", "Potency": "inconclusive: 35.5 µM [inhibitor, single point]"}
    ]}
  ]
}
